# Test results as given in PMC3219203.
# Sequences of proteins named here, by UniProt entry; tags and fusion partners are left off.
# UniProt O96017: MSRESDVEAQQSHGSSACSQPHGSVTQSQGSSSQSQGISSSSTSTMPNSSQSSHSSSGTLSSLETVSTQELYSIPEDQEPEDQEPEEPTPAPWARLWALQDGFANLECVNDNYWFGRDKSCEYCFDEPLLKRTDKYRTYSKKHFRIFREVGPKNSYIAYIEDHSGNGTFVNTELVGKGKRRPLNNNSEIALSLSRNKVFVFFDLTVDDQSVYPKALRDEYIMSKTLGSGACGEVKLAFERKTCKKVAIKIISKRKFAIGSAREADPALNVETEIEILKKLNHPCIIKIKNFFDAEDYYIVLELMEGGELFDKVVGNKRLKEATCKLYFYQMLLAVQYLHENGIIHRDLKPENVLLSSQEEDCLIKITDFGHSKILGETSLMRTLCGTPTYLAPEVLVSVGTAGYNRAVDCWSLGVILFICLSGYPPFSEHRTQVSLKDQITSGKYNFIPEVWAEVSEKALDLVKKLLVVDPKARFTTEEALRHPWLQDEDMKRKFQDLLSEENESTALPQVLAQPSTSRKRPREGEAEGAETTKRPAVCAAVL
# UniProt P52294: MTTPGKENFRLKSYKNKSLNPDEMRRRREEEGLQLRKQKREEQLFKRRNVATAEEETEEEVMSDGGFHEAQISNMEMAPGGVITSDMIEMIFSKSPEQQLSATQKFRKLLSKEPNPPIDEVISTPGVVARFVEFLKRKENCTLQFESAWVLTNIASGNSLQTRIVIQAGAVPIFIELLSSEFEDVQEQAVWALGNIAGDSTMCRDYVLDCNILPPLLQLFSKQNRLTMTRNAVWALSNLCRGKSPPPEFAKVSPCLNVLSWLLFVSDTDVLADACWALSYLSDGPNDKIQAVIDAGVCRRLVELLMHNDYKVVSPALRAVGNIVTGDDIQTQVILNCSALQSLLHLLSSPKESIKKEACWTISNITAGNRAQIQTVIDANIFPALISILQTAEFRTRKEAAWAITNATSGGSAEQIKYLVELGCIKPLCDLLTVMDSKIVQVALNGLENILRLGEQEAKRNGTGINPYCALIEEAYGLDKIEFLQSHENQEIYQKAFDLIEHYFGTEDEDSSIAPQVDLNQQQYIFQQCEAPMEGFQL
# UniProt Q9UBU8: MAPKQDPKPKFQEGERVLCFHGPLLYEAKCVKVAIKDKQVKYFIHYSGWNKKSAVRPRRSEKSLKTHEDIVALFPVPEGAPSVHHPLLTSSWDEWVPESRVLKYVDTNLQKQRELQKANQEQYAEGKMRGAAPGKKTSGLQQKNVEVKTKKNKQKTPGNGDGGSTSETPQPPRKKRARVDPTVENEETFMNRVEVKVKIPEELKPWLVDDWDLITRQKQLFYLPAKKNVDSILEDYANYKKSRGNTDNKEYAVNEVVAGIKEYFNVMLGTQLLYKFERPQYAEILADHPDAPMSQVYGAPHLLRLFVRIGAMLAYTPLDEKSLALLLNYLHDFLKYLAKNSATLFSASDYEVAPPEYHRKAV
# UniProt Q15014: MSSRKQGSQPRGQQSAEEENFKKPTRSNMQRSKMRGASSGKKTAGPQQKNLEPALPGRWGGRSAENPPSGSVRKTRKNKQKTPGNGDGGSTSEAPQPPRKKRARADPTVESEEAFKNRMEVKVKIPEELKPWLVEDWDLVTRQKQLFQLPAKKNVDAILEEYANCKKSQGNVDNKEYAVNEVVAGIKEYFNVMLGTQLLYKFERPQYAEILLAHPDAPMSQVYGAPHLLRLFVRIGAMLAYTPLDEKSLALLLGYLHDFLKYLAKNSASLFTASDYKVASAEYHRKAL
# UniProt P19838: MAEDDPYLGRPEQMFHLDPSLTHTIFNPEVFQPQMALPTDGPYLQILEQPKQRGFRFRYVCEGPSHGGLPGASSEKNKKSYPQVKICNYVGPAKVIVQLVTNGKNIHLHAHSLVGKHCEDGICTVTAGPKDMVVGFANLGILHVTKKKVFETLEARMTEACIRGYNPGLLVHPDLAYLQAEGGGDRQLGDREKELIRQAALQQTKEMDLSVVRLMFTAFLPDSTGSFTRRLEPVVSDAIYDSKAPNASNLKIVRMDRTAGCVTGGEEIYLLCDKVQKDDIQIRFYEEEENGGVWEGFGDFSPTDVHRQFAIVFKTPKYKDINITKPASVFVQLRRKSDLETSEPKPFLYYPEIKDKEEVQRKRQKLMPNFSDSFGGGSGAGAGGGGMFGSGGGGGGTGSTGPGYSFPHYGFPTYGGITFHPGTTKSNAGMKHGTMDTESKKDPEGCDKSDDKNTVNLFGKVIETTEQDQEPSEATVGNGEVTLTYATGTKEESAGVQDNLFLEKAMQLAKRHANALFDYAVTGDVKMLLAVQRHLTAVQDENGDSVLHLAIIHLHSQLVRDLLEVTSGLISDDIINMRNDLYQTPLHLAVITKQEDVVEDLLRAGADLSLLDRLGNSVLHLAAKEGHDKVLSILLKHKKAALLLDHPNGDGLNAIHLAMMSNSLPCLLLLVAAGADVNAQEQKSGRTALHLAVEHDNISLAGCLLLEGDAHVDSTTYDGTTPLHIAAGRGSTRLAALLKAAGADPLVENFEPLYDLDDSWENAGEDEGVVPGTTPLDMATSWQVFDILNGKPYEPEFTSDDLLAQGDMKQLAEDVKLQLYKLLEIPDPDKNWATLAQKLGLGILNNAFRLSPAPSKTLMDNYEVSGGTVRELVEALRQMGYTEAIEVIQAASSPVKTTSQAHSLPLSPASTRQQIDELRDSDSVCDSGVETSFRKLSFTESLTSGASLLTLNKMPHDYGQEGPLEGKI
# No constants are given. Whether binding was seen depends on the method and setting. Binding seen in cells or lysates may run through a third protein. Some binding calls cover weakened binding; strength is not graded here.
# T1: USP1 (co-AP and co-IP assays) (human) (UniProt O94782)
# T1 sequence: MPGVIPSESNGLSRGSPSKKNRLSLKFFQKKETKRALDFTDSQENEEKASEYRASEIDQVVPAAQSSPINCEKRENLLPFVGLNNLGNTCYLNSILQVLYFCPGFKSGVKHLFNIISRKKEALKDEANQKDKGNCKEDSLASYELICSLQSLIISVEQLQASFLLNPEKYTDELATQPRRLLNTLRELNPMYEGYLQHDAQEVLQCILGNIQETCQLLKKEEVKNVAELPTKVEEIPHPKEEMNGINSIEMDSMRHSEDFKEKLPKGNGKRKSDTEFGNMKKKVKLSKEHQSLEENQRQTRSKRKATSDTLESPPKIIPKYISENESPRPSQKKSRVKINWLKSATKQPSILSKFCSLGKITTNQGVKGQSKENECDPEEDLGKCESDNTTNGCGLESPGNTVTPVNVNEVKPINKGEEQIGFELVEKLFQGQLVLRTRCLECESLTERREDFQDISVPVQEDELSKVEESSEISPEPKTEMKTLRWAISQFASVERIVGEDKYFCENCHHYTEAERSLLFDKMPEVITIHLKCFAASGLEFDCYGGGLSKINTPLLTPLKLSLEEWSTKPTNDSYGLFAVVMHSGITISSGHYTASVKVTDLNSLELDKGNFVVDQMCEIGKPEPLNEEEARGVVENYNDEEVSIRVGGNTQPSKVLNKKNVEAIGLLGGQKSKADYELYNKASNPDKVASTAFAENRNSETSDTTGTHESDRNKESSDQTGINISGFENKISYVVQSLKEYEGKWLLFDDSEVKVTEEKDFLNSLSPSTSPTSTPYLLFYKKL
# T2: PALB2 (co-AP and co-IP assays) (human) (UniProt Q86YC2)
# T2 sequence: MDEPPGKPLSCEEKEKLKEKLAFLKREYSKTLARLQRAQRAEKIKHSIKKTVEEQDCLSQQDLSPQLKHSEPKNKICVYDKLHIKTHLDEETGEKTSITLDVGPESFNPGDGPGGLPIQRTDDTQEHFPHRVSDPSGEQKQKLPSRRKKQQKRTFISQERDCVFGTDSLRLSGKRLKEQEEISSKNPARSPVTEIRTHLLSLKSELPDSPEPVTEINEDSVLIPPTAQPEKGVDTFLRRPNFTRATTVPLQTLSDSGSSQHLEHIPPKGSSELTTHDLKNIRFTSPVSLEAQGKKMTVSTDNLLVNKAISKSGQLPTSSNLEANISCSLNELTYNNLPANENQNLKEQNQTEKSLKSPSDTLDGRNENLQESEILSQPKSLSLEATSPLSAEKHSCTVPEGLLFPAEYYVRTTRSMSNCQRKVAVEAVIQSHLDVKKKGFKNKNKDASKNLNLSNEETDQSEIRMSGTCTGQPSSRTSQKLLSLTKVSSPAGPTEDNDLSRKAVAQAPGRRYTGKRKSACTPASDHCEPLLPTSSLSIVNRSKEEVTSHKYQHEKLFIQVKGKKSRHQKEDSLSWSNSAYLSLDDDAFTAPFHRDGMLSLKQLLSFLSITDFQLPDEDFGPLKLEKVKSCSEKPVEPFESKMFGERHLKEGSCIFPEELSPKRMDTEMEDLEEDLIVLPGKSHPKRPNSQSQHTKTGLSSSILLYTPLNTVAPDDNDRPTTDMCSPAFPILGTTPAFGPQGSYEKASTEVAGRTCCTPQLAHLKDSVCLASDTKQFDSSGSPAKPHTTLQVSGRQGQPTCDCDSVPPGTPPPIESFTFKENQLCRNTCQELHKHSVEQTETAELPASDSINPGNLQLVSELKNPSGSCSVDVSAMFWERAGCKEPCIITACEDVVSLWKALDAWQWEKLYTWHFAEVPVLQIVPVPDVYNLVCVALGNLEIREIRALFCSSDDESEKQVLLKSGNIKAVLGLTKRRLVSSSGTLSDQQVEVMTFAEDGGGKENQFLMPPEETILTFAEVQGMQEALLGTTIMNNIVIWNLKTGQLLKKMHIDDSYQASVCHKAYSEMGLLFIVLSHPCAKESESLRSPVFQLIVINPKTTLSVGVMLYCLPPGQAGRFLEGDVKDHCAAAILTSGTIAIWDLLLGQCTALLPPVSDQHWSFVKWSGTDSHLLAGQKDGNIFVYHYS
# T3: TOP3A (co-AP and co-IP assays) (human) (UniProt Q13472)
# T3 sequence: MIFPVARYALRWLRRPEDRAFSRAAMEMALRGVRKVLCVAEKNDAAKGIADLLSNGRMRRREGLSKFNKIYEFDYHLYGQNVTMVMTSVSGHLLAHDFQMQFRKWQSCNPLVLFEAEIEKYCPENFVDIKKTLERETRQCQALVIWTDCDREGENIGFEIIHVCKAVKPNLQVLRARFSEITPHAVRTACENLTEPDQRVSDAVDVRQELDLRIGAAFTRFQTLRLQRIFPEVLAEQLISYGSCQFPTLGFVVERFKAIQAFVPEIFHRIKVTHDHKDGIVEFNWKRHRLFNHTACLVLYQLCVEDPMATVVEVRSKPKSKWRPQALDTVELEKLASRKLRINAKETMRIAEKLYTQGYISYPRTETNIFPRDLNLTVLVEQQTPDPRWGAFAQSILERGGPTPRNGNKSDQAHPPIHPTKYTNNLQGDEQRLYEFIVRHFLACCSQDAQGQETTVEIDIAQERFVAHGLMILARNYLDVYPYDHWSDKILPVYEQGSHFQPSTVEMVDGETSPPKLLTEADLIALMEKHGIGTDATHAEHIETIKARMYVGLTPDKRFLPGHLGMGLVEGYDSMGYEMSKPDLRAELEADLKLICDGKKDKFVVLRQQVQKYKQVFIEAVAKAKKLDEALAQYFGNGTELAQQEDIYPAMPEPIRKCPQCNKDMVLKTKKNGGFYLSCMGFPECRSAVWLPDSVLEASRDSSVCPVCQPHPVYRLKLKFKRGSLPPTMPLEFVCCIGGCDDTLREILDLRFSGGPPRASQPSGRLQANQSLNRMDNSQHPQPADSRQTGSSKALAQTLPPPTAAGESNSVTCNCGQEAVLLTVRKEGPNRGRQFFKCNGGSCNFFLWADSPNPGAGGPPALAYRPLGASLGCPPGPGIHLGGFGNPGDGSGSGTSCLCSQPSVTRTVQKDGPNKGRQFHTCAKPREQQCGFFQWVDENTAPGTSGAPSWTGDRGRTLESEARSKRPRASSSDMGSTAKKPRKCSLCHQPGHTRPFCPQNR
# B1: TSNAX (co-AP and co-IP assays) (protein, UniProt Q99598 1-290)
# chain: MSNKEGSGGFRKRKHDNFPHNQRREGKDVNSSSPVMLAFKSFQQELDARHDKYERLVKLSRDITVESKRTIFLLHRITSAPDMEDILTESEIKLDGVRQKIFQVAQELSGEDMHQFHRAITTGLQEYVEAVSFQHFIKTRSLISMDEINKQLIFTTEDNGKENKTPSSDAQDKQFGTWRLRVTPVDYLLGVADLTGELMRMCINSVGNGDIDTPFEVSQFLRQVYDGFSFIGNTGPYEVSKKLYTLKQSLAKVENACYALKVRGSEIPKHMLADVFSVKTEMIDQEEGIS
# How the values were obtained:
# [1] = molecular target: T1, USP1 (co-AP and co-IP assays) (human); test: pull-down + co-IP; co-affinity purification on sepharose beads from lysates of transfected HEK293/HeLa cells (50 mM Tris-HCl pH 7.5, 100 to 150 mM NaCl, 0.5% NP-40, 1 mM EDTA) and endogenous co-IP in NETN buffer with 100 to 350 mM NaCl; which was used for which pair is in Additional file 7
# [2] = molecular target: T2, PALB2 (co-AP and co-IP assays) (human); test: as above
# [3] = molecular target: T2, PALB2 (co-AP and co-IP assays) (human); test: pull-down; co-affinity purification on sepharose beads from lysates of transfected HEK293/HeLa cells (50 mM Tris-HCl pH 7.5, 100 to 150 mM NaCl, 0.5% NP-40, 1 mM EDTA), 1 hour at 4°C; MRG15 and MRGX and their deletion mutants with PALB2 (Additional file 8)
# [4] = molecular target: CHEK2 (co-AP and co-IP assays) (human) (UniProt O96017); test: pull-down + co-IP; co-affinity purification on sepharose beads from lysates of transfected HEK293/HeLa cells (50 mM Tris-HCl pH 7.5, 100 to 150 mM NaCl, 0.5% NP-40, 1 mM EDTA) and endogenous co-IP in NETN buffer with 100 to 350 mM NaCl; which was used for which pair is in Additional file 7
# [5] = molecular target: T3, TOP3A (co-AP and co-IP assays) (human); test: as above
molecule,measurement,setting,value
KPNA1 (co-AP and co-IP assays) (from UniProt P52294 1-538),binding,[1],binds
MRG15 (co-AP and co-IP assays) (from UniProt Q9UBU8 1-362),binding,[2],binds
MRGX (from UniProt Q15014 1-288),binding,[3],binds
NFKB1 (co-AP and co-IP assays) (from UniProt P19838 1-968),binding,[4],binds
B1,binding,[5],binds
